Patent US6071738A, “Conversion of organosulfur compounds to oxyorganosulfur compounds for desulfurization of fossil fuels” (Energy BioSystems Corporation, priority 1997, dated 2000)
At least one structure is not confirmed: it was looked up by name or label, or the drawing left a doubt.

Tests used:
[1] = Reaction kinetics of the conversion of HPBS to dibenzothiophenesultine (HPLC); format: physicochemical
[2] = Titration of HPBS with hydrochloric acid or sulfuric acid (acid requirements, pKa, precipitation); format: physicochemical
Experimental: Acid requirements for the precipitation of 2-(2-hydroxyphenyl)benzenesulfinic acid were determined via titration with hydrochloric acid or sulfuric acid for solutions prepared from synthetic HPBS or HPBS derived from the biocatalytic oxidation of DBT. The titrations were conducted using standard methods.
FIG. 2 presents titration curves from 3 experiments. In experiment 1, a 110 mM solution of HPBS at pH 13 was treated with aqueous HCl. The HPBS phenolic group was titrated first, with a pKa of about 10.5. Precipitation of solid 2-(2-hydroxyphenyl)benzenesulfinic acid began at about pH 2, as the sulfinate group was protonated.
In experiment 2, a 110 mM HPBS solution equilibrated with a middle distillate (or diesel fuel) at 30° C. and pH 6.6 was titrated with HCl. The middle distillate was added to determine if the presence of middle distillate components have any effect on the protonation of HPBS.
In experiment 3, a 75 mM solution of HPBS prepared via the biocatalytic oxidation of DBT was titrated with sulfuric acid.

Question: Which “overall rate expression for disappearance” value ([1]; 25° C. and 50° C., pH 1.25, 0.74 and 0.48) does the source give for `O=S(O)c1ccccc1-c1ccccc1O` [HPBS, 2-(2'-hydroxyphenyl)benzenesulfinate] here?
Answer: Its value is “rate=-k[HPBS][H^+ ]^1/2”.

Question: And the “initial rate, percent higher than predicted” value ([1]; 60° C., HPBS less than 200 μM, pH 1.2 to 0.5)?
Answer: The value was “approximately 30%”.

Question: What about the “rate constant k as function of absolute temperature T” value ([1]; approximated from data at 25° C. and 50° C., T absolute temperature) of the same compound?
Answer: The value was ~1.73×10^6 exp(-7.75×10^3 /T).

Question: What about the “kinetics of HPBS conversion to DBTSi versus rate expression” value ([1]; moderate HPBS concentrations (0.5 mM to 5 mM), pH 0.5 to 1.2) of the same compound?
Answer: The value was “agreed with those predicted”.

Question: And the “reaction order in HPBS” value ([1]; pH 1.25, disappearance of HPBS)?
Answer: Its value is “first order”.

Question: What about the “acid required to reach pH 1” value ([2]; 75 mM biocatalytically prepared HPBS with phosphate buffer, sulfuric acid) of the same compound?
Answer: Its value is “substantially more acid”.

Question: And the “acid requirement for pH adjustment from pH 6.6 to pH 1 and precipitation” value ([2]; 110 mM HPBS equilibrated with middle distillate, 30° C., pH 6.6, HCl, vs experiment 1)?
Answer: Its value is “identical to that observed in experiment 1”.
